Article PMC7807167 (Methods (San Diego, Calif.), 2021)

Legend:
SARS-CoV-2/MT020880 [1] = type: cell-based
SARS-CoV-2/MT020880 [2] = type: cell-based; remark: listed apart in the source

O=C(CCCN1CCC(O)(c2ccc(Cl)cc2)CC1)c1ccc(F)cc1 [Haloperidol]
IC-50_Viral Spread assay (SARS-CoV-2/MT020880 [1]): (Very wide) | IC50_Viral Entry blocking assay (SARS-CoV-2/MT020880 [2]): (Very wide)
